One substance from paper PMC10058229, “Diverse cytomotive actins and tubulins share a polymerization switch mechanism conferring robust dynamics” (Science Advances, 2023) can be followed below.

The chains behind the UniProt entries cited, without tags or fusion partners. Where a name states a change or a piece, a line headed by the entry shows the natural chain unless it says otherwise.
UniProt Q8GCC5: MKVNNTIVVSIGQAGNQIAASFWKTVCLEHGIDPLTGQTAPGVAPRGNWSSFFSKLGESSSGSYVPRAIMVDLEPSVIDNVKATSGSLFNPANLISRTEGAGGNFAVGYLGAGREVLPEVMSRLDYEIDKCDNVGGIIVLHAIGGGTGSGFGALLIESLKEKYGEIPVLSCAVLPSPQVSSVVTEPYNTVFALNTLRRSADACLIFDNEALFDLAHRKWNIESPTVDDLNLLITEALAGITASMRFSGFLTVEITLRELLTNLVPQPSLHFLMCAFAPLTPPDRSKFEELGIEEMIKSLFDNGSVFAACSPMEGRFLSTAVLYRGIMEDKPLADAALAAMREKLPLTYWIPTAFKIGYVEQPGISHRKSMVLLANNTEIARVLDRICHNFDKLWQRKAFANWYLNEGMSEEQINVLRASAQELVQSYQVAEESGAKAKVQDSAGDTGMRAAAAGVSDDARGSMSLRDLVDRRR
UniProt Q8GCC1: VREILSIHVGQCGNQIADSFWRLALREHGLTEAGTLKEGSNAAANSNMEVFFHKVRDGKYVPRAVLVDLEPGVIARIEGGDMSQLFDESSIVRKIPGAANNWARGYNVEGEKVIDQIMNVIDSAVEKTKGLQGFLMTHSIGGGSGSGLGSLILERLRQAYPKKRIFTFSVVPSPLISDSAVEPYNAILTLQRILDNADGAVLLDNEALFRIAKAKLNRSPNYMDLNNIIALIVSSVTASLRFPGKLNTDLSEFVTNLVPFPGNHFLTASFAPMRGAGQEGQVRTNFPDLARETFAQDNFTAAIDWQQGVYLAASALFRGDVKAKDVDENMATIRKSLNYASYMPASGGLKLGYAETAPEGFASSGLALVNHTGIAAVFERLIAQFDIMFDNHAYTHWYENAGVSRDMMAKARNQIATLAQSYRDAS

The test concerns the target P. dejongeii BtubAB heterodimer (wild type) (P. dejongeii) (UniProt Q8GCC5+Q8GCC1). In words: negative-stain electron microscopy; micrographs of negatively stained polymers of WT BtubAB and of BtubA*B; both purified.

Results are given in words; binding and its absence hold for the method and conditions named. Some results given as binding are weak or reduced against the parent protein; the word gives no strength.

“P. dejongeii BtubAB heterodimer (wild type) (from UniProt Q8GCC5 1-473; Q8GCC1 1-426) (complex)”: the binding result is on record as “binds”.
